From ChEMBL document CHEMBL1153021, “Phenylphenalenones from the Australian plant Haemodorum simplex” (J Nat Prod, 2009)

Experiments:
Format in all cases: functional, organism-based
Pseudomonas aeruginosa = experiment: Antimicrobial activity against Pseudomonas aeruginosa ATCC 27853 at 10 ug
Escherichia coli = experiment: Antibacterial activity against Escherichia coli ATCC 25922 at 10 ug
Candida albicans = experiment: Antifungal activity against Candida albicans ATCC 14053 at 100 IU

Sequence | inhibition zone (IZ) (Pseudomonas aeruginosa) | inhibition zone (IZ) (Escherichia coli) | inhibition zone (IZ) (Candida albicans)
GENTAMICIN | 10 mm | 10 mm | –
NYSTATIN | – | – | 12 mm
